Results are given in words; binding and its absence hold for the method and conditions named. Some binding calls cover weakened binding; strength is not graded here. Tags and fused reporters may be left off the sequences shown. Values belong to the binder of their own block, whether it stands above or below them.
Biological target: T1, tissue plasminogen activator (recombinant tPA, Actilyse) (UniProt P00750 36-562)
T1 construct: Actilyse is recombinant human tPA (alteplase)
Assay: BLI

Amino acid sequences for entries named in this document (tags omitted). Residues count along the entry.
UniProt P00750, residues 36-562: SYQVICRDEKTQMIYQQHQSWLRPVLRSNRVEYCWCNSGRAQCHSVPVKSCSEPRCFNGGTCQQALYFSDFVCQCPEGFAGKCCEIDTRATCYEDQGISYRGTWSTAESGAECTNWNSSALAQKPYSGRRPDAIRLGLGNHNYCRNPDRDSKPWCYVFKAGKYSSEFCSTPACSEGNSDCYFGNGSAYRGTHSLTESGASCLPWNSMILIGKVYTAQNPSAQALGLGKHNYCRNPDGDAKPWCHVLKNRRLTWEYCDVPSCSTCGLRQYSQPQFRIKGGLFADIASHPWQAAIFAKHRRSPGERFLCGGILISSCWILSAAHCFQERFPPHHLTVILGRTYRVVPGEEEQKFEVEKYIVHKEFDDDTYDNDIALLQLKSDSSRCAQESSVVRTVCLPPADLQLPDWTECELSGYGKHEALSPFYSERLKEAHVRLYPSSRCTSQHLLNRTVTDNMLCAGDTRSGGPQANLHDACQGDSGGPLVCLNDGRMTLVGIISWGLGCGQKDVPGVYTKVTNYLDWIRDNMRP

binding: binds
B1: VHH A11 including C-terminal His6-tag (VHH)
VHH: QVQLVETGGGLVQAGGSLRLSCAASGNIFSINAMDWYRQAPGKERELVAAITSGGTTNYADSVKGRFTISRDNAKDTVYLQMNSLKPEDAAFYYCNADGYYSDYDKNLAEFNSWGQGTQVTVSS
notes: Alpaca-derived

binding: binds
B2: VHH C5 including C-terminal His6-tag (VHH)
VHH: QVQLVESGGGLVQAGGSLRLSCAASGRRFMVVAMGWYRQAPGNQRELVASITNGGTTNYAGSVKGRFTISGDSAKNTVYLHMNSLKPEDTAVYYCTTDVVFRDGNGQIQSNWGQGTQVTVSS
notes: Alpaca-derived
